US7696233B2, “Method for controlling particular insect pests by applying anthranilamide compounds” (E. I. du Pont de Nemours and Company, priority 2001, dated 2010)
Some of these results come from one statement about several compounds together.

How the values were obtained:
Assay type in all cases: in vivo
[1] = system: beet armyworm (Spodoptera exigua); assay: Test C: control of beet armyworm, foliar spray on corn; conditions: sprayed at 50 ppm, visually rated after 6 days
[2] = system: fall armyworm (Spodoptera frugiperda); assay: Test A: control of fall armyworm, foliar spray on corn; conditions: sprayed at 50 ppm, visually assessed after 6 days
[3] = system: tobacco budworm (Heliothis virescens); assay: Test B: control of tobacco budworm, foliar spray on cotton; conditions: sprayed at 50 ppm, visually rated after 6 days

Measured: feeding damage (excellent levels of plant protection)

Cc1cc(I)cc(C(=O)NC(C)C)c1NC(=O)c1cc(Br)nn1-c1ncccc1Cl [Compound 580]
≤ 10%: all assays above

CNC(=O)c1cc(C(F)(F)F)cc(C)c1NC(=O)c1cc(C(F)(F)F)nn1-c1ncccc1Cl [Compound 581]
≤ 10%: all assays above

CNC(=O)c1cc(I)cc(C)c1NC(=O)c1cc(Cl)nn1-c1ncccc1Cl [Compound 582]
≤ 10%: all assays above

CCNC(=O)c1cc(I)cc(C)c1NC(=O)c1cc(Cl)nn1-c1ncccc1Cl [Compound 583]
≤ 10%: all assays above

Cc1cc(I)cc(C(=O)NC(C)C)c1NC(=O)c1cc(Cl)nn1-c1ncccc1Cl [Compound 584]
≤ 10%: all assays above

Cc1cc(I)cc(C(=O)NC(C)(C)C)c1NC(=O)c1cc(Cl)nn1-c1ncccc1Cl [Compound 585]
≤ 10%: all assays above

CNC(=O)c1cc(Cl)cc(C)c1NC(=O)c1cc(I)nn1-c1ncccc1Cl [Compound 586]
≤ 10%: all assays above

Cc1cc(Cl)cc(C(=O)NC(C)C)c1NC(=O)c1cc(I)nn1-c1ncccc1Cl [Compound 587]
≤ 10%: all assays above

Cc1cc(Cl)cc(C(N)=O)c1NC(=O)c1cc(I)nn1-c1ncccc1Cl [Compound 588]
≤ 10%: all assays above

Cc1cc(Cl)cc(C(N)=O)c1NC(=O)c1cc(Br)nn1-c1ccc(F)cc1Cl [Compound 590]
≤ 10%: all assays above

Cc1ccccc1NC(=O)c1cc(Cl)cc(C)c1NC(=O)c1cc(C(F)(F)F)nn1-c1ncccc1Cl [Compound 595]
≤ 10%: all assays above

Cc1cc([N+](=O)[O-])cc(C(=O)NC(C)C)c1NC(=O)c1cc(C(F)(F)F)nn1-c1ncccc1Cl [Compound 596]
≤ 10%: all assays above

CN(C)C(=O)c1cc(Br)cc(Br)c1NC(=O)c1cc(Cl)nn1-c1ncccc1Cl [Compound 601]
≤ 10%: all assays above

CSCC(C)NC(=O)c1cc(Br)cc(Br)c1NC(=O)c1cc(Cl)nn1-c1ncccc1Cl (stereo not drawn) [Compound 603]
≤ 10%: all assays above

CN(C)NC(=O)c1cc(Br)cc(Br)c1NC(=O)c1cc(Cl)nn1-c1ncccc1Cl [Compound 609]
≤ 10%: all assays above

Cc1cc(Cl)cc(C(=O)NN(C)C)c1NC(=O)c1cc(Br)nn1-c1ncccc1Cl [Compound 611]
≤ 10%: all assays above

CNC(=S)c1cc(Cl)cc(C)c1NC(=O)c1cc(Br)nn1-c1ncccc1Cl [Compound 619]
≤ 10%: all assays above

Cc1cc(Br)cc(C(=O)N(C)C)c1NC(=O)c1cc(C(F)(F)F)nn1-c1ncccc1Cl [Compound 620]
≤ 10%: all assays above

CCN(CC)C(=O)c1cc(Br)cc(C)c1NC(=O)c1cc(C(F)(F)F)nn1-c1ncccc1Cl [Compound 621]
≤ 10%: all assays above

CCN(CC)C(=O)c1cc(Cl)cc(Cl)c1NC(=O)c1cc(Cl)nn1-c1ncccc1Cl [Compound 624]
≤ 10%: all assays above

CN(C)C(=O)c1cc(Cl)cc(Cl)c1NC(=O)c1cc(Cl)nn1-c1ncccc1Cl [Compound 625]
≤ 10%: all assays above

CSCC(C)NC(=O)c1cc(Cl)cc(Cl)c1NC(=O)c1cc(Cl)nn1-c1ncccc1Cl (stereo not drawn) [Compound 626]
≤ 10%: all assays above

CCN(CC)C(=O)c1cc(Br)cc(Br)c1NC(=O)c1cc(Cl)nn1-c1ncccc1Cl [Compound 627]
≤ 10%: all assays above

Cc1cc(Br)cc(C(=O)N(C)C(C)C)c1NC(=O)c1cc(C(F)(F)F)nn1-c1ncccc1Cl [Compound 628]
≤ 10%: all assays above

CN(C)C(=O)c1cc(Br)cc(Br)c1NC(=O)c1cc(Br)nn1-c1ncccc1Cl [Compound 629]
≤ 10%: all assays above

CCN(CC)C(=O)c1cc(Br)cc(Br)c1NC(=O)c1cc(Br)nn1-c1ncccc1Cl [Compound 630]
≤ 10%: all assays above

CSCC(C)NC(=O)c1cc(Br)cc(Br)c1NC(=O)c1cc(Br)nn1-c1ncccc1Cl (stereo not drawn) [Compound 631]
≤ 10%: all assays above

CCNC(=O)c1cc(Cl)cc(C)c1NC(=O)c1cc(OC(F)F)nn1-c1ncccc1Cl [Compound 632]
≤ 10%: all assays above

Cc1cc(Cl)cc(C(=O)NC(C)C)c1NC(=O)c1cc(OC(F)F)nn1-c1ncccc1Cl [Compound 633]
≤ 10%: all assays above

CNC(=O)c1cc(Br)cc(C)c1NC(=O)c1cc(OC(F)F)nn1-c1ncccc1Cl [Compound 634]
≤ 10%: all assays above

CCN(C)C(=O)c1cc(Br)cc(Br)c1NC(=O)c1cc(Br)nn1-c1ncccc1Cl [Compound 638]
≤ 10%: all assays above

CCN(C)C(=O)c1cc(Cl)cc(Cl)c1NC(=O)c1cc(Cl)nn1-c1ncccc1Cl [Compound 639]
≤ 10%: all assays above

CCN(C)C(=O)c1cc(Br)cc(C)c1NC(=O)c1cc(C(F)(F)F)nn1-c1ncccc1Cl [Compound 640]
≤ 10%: all assays above

CN(C)C(=O)c1cc(Cl)cc(Cl)c1NC(=O)c1cc(Br)nn1-c1ncccc1Cl [Compound 641]
≤ 10%: all assays above

CCN(CC)C(=O)c1cc(Cl)cc(Cl)c1NC(=O)c1cc(Br)nn1-c1ncccc1Cl [Compound 642]
≤ 10%: all assays above

CSCC(C)NC(=O)c1cc(Cl)cc(Cl)c1NC(=O)c1cc(Br)nn1-c1ncccc1Cl (stereo not drawn) [Compound 643]
≤ 10%: all assays above

CCN(C)C(=O)c1cc(Cl)cc(Cl)c1NC(=O)c1cc(Br)nn1-c1ncccc1Cl [Compound 644]
≤ 10%: all assays above

CCNC(=O)c1cc([N+](=O)[O-])cc(C)c1NC(=O)c1cc(C(F)(F)F)nn1-c1ncccc1Cl [Compound 645]
≤ 10%: all assays above

C=CCNC(=O)c1cc([N+](=O)[O-])cc(C)c1NC(=O)c1cc(C(F)(F)F)nn1-c1ncccc1Cl [Compound 647]
≤ 10%: all assays above
